These are yes or no findings as the source states them, for the method shown. Some entries that bind do so weakly or less than the wild type.
Assays:
[1] = target: T1, OMP25 (mitochondrial outer membrane protein 25) (human) (UniProt P57105); assay: TransSignal PDZ Domain Array membrane, bacterial extract, anti-His HRP
T1 sequence (looked up): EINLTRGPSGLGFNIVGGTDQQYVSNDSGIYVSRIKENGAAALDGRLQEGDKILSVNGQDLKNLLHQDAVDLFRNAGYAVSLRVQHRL

Protein sequences, listed by entry. Tags and fused reporters are not part of them. Residues count along the entry.
UniProt P26045, residues 510-582: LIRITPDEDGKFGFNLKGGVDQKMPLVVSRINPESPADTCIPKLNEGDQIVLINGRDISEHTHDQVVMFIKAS
UniProt P15941, residues 1184-1255: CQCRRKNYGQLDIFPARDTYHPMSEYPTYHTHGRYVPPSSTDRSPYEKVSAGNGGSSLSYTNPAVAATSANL

[2] = target: T2, HtrA2 (high temperature requirement protein A2) (human) (UniProt O43464); assay: as above
T2 sequence (looked up): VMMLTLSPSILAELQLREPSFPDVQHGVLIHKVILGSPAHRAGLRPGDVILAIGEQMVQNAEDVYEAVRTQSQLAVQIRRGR

[3] = target: PTPH1 (protein-tyrosine phosphatase H1) (human) (UniProt P26045); assay: as above
[4] = target: T3, Mint-1 d2 (XII protein, PDZ domain #2) (human) (UniProt Q02410); assay: as above
T3 sequence (looked up): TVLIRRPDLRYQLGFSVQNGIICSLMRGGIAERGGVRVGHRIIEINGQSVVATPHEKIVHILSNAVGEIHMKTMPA

[5] = target: T4, RIL (reversion-induced LIM protein) (human) (UniProt P50479); assay: as above
T4 sequence (looked up): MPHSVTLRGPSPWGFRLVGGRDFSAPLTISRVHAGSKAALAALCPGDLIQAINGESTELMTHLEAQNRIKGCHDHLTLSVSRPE

Mint-3 d1 (human) [6] = target: T5, Mint-3 d1 (human) (UniProt O96018); assay: PDZ array membrane, 400 ng/spot, no 7-mer peptide
T5 sequence (looked up): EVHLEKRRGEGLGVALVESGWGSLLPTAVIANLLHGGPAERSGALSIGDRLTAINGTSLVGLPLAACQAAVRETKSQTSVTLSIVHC

[7] = target: T2, HtrA2 (high temperature requirement protein A2) (human); assay: PDZ array membrane, 400 ng/spot, no 7-mer peptide
[8] = target: PTPH1 (protein-tyrosine phosphatase H1) (human) (UniProt P26045); assay: PDZ array membrane, 400 ng/spot, no 7-mer peptide
[9] = target: T3, Mint-1 d2 (XII protein, PDZ domain #2) (human); assay: PDZ array membrane, 400 ng/spot, no 7-mer peptide
Mint-3 d1 (human) [10] = target: T5, Mint-3 d1 (human); assay: PDZ array membrane, 80 ng/spot, no 7-mer peptide
[11] = target: T2, HtrA2 (high temperature requirement protein A2) (human); assay: PDZ array membrane, 80 ng/spot, no 7-mer peptide
[12] = target: T3, Mint-1 d2 (XII protein, PDZ domain #2) (human); assay: PDZ array membrane, 80 ng/spot, no 7-mer peptide

binding [1]: binds
binding [2]: binds
binding [3]: binds
binding [4]: binds
binding [5]: binds
binding (Mint-3 d1 (human) [6]): binds
binding [7]: binds
binding [8]: binds
binding [9]: binds
binding (Mint-3 d1 (human) [10]): binds
binding [11]: binds
binding [12]: binds
Substance: His-tagged MUC1/CD (from UniProt P15941 1184-1255)
